The text below walks through data of the supplement of paper PMC10338343.

± gives the standard deviation. This is a selection; strong and weak results do not stand in their true shares. Many entries were measured with a wide error.

The assay concerns EfPiwi piRISC loaded with piRNA #1 (26 nt). As to the kind of experiment: pre-steady-state target cleavage rate (min^-1); guide: piRNA #1 5'p-UGAGGUAGUAGGUUGUAUAGUAUCCA; MIWI and MILI are mouse PIWI proteins and EfPiwi is from a freshwater sponge; tags in brackets are library labels; higher = faster piRNA-guided slicing of the target. Conditions: auxiliary factor: 500 nM Ephydatia muelleri Gtsf1. The essentials:
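A burst-and-steady-state fit was used to obtain the pre-steady-state cleavage rate. The input data were sequencing reads of uncleaved targets, normalised to depth and to weakly complementary targets, from a […] transcribed, DNA-blocked target RNA library mixed with 1 nM active affinity-purified piRISC holding one synthetic guide, with or without 500 nM GTSF1 partner protein, in HEPES–potassium acetate buffer at 33 °C for 0–8 or 0–960 min. Three trials were pooled and k3 was capped at 0.0001 min^-1.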
Consider GGAGACGAUACUAUUCAACCUACUAGCUCA, for which the “pre-steady-state target cleavage rate” value turned out to be 0.0042 ± 0.002.

As to GGAGACCUUACUAUACUACCUACUACGUCA, the “pre-steady-state target cleavage rate” value stood at 0.000415 ± 0.0057.

For GGAGACCUUACUAUACUAGCUACUACCUCA, the “pre-steady-state target cleavage rate” value was 0.00124 ± 0.0057.

Consider GGAGAGGAUACUAUACAACAUACUACCUCA, for which the “pre-steady-state target cleavage rate” value amounted to 0.0063 ± 0.0023.

With GGAGAGGUUACUAUACAACGUACUACCUCA, the “pre-steady-state target cleavage rate” value was found to be 0.00457 ± 0.0015.

GGAGAGGAUACAAUACAAGCUACUACCUCA: the “pre-steady-state target cleavage rate” value was 0.0036 ± 0.0019.

Consider GGAGACCUAACUAUAGAUCCUACUACCUCA, for which the “pre-steady-state target cleavage rate” value is 0.0011 ± 0.0062.

Turning to GGAGUGGAUACUAUACAACCAAGUACCUCA, the “pre-steady-state target cleavage rate” value is 0.00281 ± 0.0018.

As to GGAGACCUAUGUUACAACCUACUACCUCA, the “pre-steady-state target cleavage rate” value worked out at 0.00291 ± 0.0044.

For GGAGACCUAUGAAUAGAAGCUACUACCUCA, the “pre-steady-state target cleavage rate” value turned out to be 0.000313 ± 0.0094.

For the sequence GGAGACCUAACUAUACAACCUACAUACCUCA, the “pre-steady-state target cleavage rate” value came out at 0.00151 ± 0.0062.

GGAGACCUAACUAUACAACCUACUAUCCUCA: the “pre-steady-state target cleavage rate” value is 0.00341 ± 0.0035.

As for GGAGACCUAAGUAUACAACCUACAACCUCA, the “pre-steady-state target cleavage rate” value stood at 0.00149 ± 0.0035.

Regarding GGAGAGGUUACUAUACAACCUACUACGUCA, the “pre-steady-state target cleavage rate” value was 0.00435 ± 0.0016.

Take GGAGACCUUACUAUACAAGCUACUACGUCA: the “pre-steady-state target cleavage rate” value amounted to 0.00235 ± 0.0032.

On to GGAGACCUAUCUAUACAAGCUUCUACCUCA, for which the “pre-steady-state target cleavage rate” value worked out at 0.00135 ± 0.0047.

Turning to GGAGAGGAUACUAUACUACCUAGUACCUCA, the “pre-steady-state target cleavage rate” value turned out to be 0.00301 ± 0.0017.

For the sequence GGAGACCAAUCUAUACAACCUACUACCUCA, the “pre-steady-state target cleavage rate” value came out at 0.0121 ± 0.0056.

In the case of GGAGACCUAUGAUAUGUUGCUAUCUACCUCA, the “pre-steady-state target cleavage rate” value was 0.000827 ± 0.01.

GGAGACCUUACUAUACAACGUACUACCACA: the “pre-steady-state target cleavage rate” value was 0.00221 ± 0.0032.

For the sequence GGAGACCUUAGUAUACAACCUACUAGCUCA, the “pre-steady-state target cleavage rate” value was 0.00168 ± 0.0036.

GGAGACCUUACUAUACUACCUACUAGCUCA: the “pre-steady-state target cleavage rate” value was found to be 0.00147 ± 0.0046.

GGAGACCAUACUAUACAACCUACUCACCUCA: the “pre-steady-state target cleavage rate” value worked out at 0.00397 ± 0.0041.

Turning to GGAGACGUUACUAUUCAACCUACUACCUCA, the “pre-steady-state target cleavage rate” value came out at 0.00346 ± 0.0043.
